Measurements as given in paper PMC6513553.

Molecular target: GFP-Ubx N51A (Drosophila)
Experiment: co-IP; S2R+ Drosophila cells co-transfected; lysate in NP40 buffer (20 mM Tris pH7.5, 150 mM NaCl, 2 mM EDTA, 1% NP40); 1 to 1.5 mg of proteins incubated 3 hr with GFP-Trap beads; 3 washes; Western blot

- binding: binds
B1: HA-Trl (protein, UniProt Q08605 1-582)
chain: MSLPMNSLYSLTWGDYGTSLVSAIQLLRCHGDLVDCTLAAGGRSFPAHKIVLCAASPFLLDLLKNTPCKHPVVMLAGVNANDLEALLEFVYRGEVSVDHAQLPSLLQAAQCLNIQGLAPQTVTKDDYTTHSIQLQHMIPQHHDQDQLIATIATAPQQTVHAQVVEDIHHQGQILQATTQTNAAGQQQTIVTTDAAKHDQAVIQAFLPARKRKPRVKKMSPTAPKISKVEGMDTIMGTPTSSHGSGSVQQVLGENGAEGQLLSSTPIIKSEGQKVETIVTMDPNNMIPVTSANAATGEITPAQGATGSSGGNTSGVLSTPKAKRAKHPPGTEKPRSRSQSEQPATCPICYAVIRQSRNLRRHLELRHFAKPGVKKEKKTTSGKKSSSGSSGSGSGALSSSGSVPQVQTVQSLHTLQGVQVKKDPDAQQQQQQQQQQQQQQQQQAMTVSGATGGQVQQQVQQVQQQVQQQQQQQQQQQQQLQHHQIIDSSGNITTATTSAQAAAAAQQQAAGQQQQLVAQSDGSESGAPLSIAQVQTLQGHQIIGNLNQVNITDFQQQQPQQQQQQQQQQQQQQQQQQQTQQTL

Results are given in words; binding and its absence hold for the method and conditions named. In cells and extracts the contact can be indirect. Binding calls can cover weak binding; strength is not graded here. Tags and fused reporters may be left off the sequences shown.
